Source: paper PMC10403538

Experiments:
pGBKT7-OsEIN2-C (rice) = biological target: T1, pGBKT7-OsEIN2-C (rice) (UniProt Q0D8I9); experiment: two-hybrid; yeast strain Y2H gold; prey in pGADT7, bait in pGBKT7; SD-Trp-Leu-His medium, 4 days at 30 °C
T1 sequence: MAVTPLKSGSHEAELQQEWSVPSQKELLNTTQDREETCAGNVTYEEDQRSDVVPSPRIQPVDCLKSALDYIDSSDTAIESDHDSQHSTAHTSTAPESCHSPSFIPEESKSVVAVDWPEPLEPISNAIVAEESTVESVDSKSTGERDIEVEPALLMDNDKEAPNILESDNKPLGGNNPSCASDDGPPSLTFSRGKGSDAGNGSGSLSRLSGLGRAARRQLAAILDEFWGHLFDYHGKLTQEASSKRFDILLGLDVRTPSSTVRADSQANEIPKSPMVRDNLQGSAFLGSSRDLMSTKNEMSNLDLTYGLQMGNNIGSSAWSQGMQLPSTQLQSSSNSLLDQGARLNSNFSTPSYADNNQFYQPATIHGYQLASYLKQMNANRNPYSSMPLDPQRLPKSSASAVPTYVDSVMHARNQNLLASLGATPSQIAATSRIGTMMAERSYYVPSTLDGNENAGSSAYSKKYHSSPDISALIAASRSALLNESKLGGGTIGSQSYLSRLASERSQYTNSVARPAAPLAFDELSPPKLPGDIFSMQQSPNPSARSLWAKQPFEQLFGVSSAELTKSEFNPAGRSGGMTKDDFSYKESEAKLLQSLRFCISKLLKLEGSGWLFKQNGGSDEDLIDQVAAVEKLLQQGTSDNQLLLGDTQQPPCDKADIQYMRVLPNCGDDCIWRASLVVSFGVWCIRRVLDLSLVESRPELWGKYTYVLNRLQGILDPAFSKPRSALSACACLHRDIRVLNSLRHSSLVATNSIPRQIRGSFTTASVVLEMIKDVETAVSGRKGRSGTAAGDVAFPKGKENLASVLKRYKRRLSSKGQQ

OsEIN2-C-cYFP (rice) = biological target: T2, OsEIN2-C-cYFP (rice) (UniProt Q0D8I9); experiment: split reporter; BiFC, nYFP and cYFP fusions co-expressed in rice protoplasts of Osein2 mhz9 double mutant; yellow fluorescence by microscopy
T2 sequence: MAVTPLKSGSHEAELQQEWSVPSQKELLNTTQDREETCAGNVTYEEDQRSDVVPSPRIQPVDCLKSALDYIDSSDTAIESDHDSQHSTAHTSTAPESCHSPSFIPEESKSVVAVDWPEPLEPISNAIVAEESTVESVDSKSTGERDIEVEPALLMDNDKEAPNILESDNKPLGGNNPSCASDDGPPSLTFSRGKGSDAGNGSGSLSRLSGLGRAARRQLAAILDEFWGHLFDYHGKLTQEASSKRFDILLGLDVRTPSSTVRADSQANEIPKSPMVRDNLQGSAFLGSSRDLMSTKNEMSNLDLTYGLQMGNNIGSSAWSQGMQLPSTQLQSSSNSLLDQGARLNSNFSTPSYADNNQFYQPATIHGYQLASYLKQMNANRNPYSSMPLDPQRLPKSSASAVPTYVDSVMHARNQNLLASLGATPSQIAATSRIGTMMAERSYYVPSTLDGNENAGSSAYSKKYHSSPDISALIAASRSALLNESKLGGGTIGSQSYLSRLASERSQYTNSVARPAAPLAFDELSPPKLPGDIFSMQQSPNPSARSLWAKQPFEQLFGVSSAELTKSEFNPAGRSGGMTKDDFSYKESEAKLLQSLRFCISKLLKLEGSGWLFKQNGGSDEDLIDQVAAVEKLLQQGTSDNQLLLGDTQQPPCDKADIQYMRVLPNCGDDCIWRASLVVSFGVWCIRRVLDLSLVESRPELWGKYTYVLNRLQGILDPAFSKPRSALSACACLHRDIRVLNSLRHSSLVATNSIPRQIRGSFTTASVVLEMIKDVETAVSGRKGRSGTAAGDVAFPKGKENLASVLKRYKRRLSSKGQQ

MHZ9-3×Myc (rice) = experiment: co-IP; co-expressed in rice protoplasts, 16 h in the dark; total proteins immunoprecipitated with anti-c-Myc affinity gel, 1 h at 4 °C; IP buffer 50 mM TRIS pH 7.4, 150 mM NaCl, 0.5 mM EDTA, 0.5% NP40; GFP-Myc as negative control

**Q.** Which binding (pGBKT7-OsEIN2-C (rice)) does the source give for AD-MHZ9 (rice) here?
**A.** binds

**Q.** How did the binding (OsEIN2-C-cYFP (rice)) turn out when MHZ9-nYFP (rice) was run?
**A.** binds

B1: OsEIN2-C-3×FLAG (domain or fragment, UniProt Q0D8I9 463-1281)
chain: MAVTPLKSGSHEAELQQEWSVPSQKELLNTTQDREETCAGNVTYEEDQRSDVVPSPRIQPVDCLKSALDYIDSSDTAIESDHDSQHSTAHTSTAPESCHSPSFIPEESKSVVAVDWPEPLEPISNAIVAEESTVESVDSKSTGERDIEVEPALLMDNDKEAPNILESDNKPLGGNNPSCASDDGPPSLTFSRGKGSDAGNGSGSLSRLSGLGRAARRQLAAILDEFWGHLFDYHGKLTQEASSKRFDILLGLDVRTPSSTVRADSQANEIPKSPMVRDNLQGSAFLGSSRDLMSTKNEMSNLDLTYGLQMGNNIGSSAWSQGMQLPSTQLQSSSNSLLDQGARLNSNFSTPSYADNNQFYQPATIHGYQLASYLKQMNANRNPYSSMPLDPQRLPKSSASAVPTYVDSVMHARNQNLLASLGATPSQIAATSRIGTMMAERSYYVPSTLDGNENAGSSAYSKKYHSSPDISALIAASRSALLNESKLGGGTIGSQSYLSRLASERSQYTNSVARPAAPLAFDELSPPKLPGDIFSMQQSPNPSARSLWAKQPFEQLFGVSSAELTKSEFNPAGRSGGMTKDDFSYKESEAKLLQSLRFCISKLLKLEGSGWLFKQNGGSDEDLIDQVAAVEKLLQQGTSDNQLLLGDTQQPPCDKADIQYMRVLPNCGDDCIWRASLVVSFGVWCIRRVLDLSLVESRPELWGKYTYVLNRLQGILDPAFSKPRSALSACACLHRDIRVLNSLRHSSLVATNSIPRQIRGSFTTASVVLEMIKDVETAVSGRKGRSGTAAGDVAFPKGKENLASVLKRYKRRLSSKGQQ
**Q.** For B1, which binding (MHZ9-3×Myc (rice)) is on record?
**A.** binds

These are yes or no findings as the source states them, for the method shown. A result given as binding can be weak or reduced; the word gives no strength. For part of these data: In cells and extracts the contact can be indirect. For part of these data: Where a sequence is shown, tags or fusion partners need not be part of it.
